Results are given in words; binding and its absence hold for the method and conditions named. Some binding calls cover weakened binding; strength is not graded here. For some of these results: Sequences can lack the tags named with a protein.

Sequences of proteins named here, by UniProt entry; tags and fusion partners are left off. Residues count along the entry.
UniProt P42685, residues 42-110: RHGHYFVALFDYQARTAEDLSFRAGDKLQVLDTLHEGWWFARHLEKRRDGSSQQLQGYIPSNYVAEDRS
UniProt P07947, residues 91-152: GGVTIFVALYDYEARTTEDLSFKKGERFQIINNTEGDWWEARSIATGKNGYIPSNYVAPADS

The values below come from patent US20190369104A1, “P27 TYROSINE PHOSPHORYLATION AS A MARKER OF CDK4 ACTIVITY AND METHODS OF USE THEREOF” (THE RESEARCH FOUNDATION FOR THE STATE UNIVERSITY OF NEW YORK, priority 2016, published 2019).

In assay [1] the target is T1, GST-K3 (GST-tagged p27 PxxP peptide K3) (human).
T1 sequence: GSVEQTPKKPGLRRRQ
The experiment in a line: phage-ELISA on immobilised GST-K3. A general note: ELISA stands for enzyme-linked immunosorbent assay.

The target of assay [2] is recombinantly produced His-tagged p27 (full-length p27) (human) (UniProt P46527). The experiment in a line: phage-ELISA, SH3 phage on immobilised His-p27.
For assay [3] the target is unchanged. The experiment in a line: phage-ELISA.
For assay [4], the target named is GST (GST domain expressed in the absence of any p27 sequence) [GST: P08515]. The experiment in a line: phage-ELISA on immobilised GST.

On to “Abl SH3 domain (displayed on phage) (from UniProt P00519 61-121)”, for which the binding entry in assay [1] was “binds”.
With “Brk SH3 domain (displayed on phage) (from UniProt Q13882 12-70)”, the binding entry in assay [2], in assay [1] and in assay [3] was “binds” each time.
As to “Frk SH3 domain (displayed on phage) (from UniProt P42685 42-110)”, the binding entry in assay [2] and in assay [4] was “binds” in each case.
As to “Yes SH3 domain (displayed on phage) (from UniProt P07947 91-152)”, in assay [1], the binding result is reported as “binds”.
